Some of the results follow.
How the values were obtained:
Experiment in all cases: log2 fold change, soluble protein after heating vs DMSO (PISA); higher = thermal stabilisation; K562 cells, 10 uM, 30 min; active = over 0.2 and 3.5 SD of the protein, either way, in both replicates (recomputed)
[1] = compound: Cc1ccc(NC(=O)c2ccc(CN3CC[C@H](N(C)C)C3)c(C(F)(F)F)c2)cc1Nc1nccc(-c2cncnc2)n1 [bafetinib]
Method in brief: (§1)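 For each measurement, 10 μM compound was applied for 30 min to K562 cells at 2×10^6 cells/mL. Aliquots were heated for 3 min across 48°C-58°C, pooled, and extracted in PBS with 0.5% NP-40 at 4°C; the supernatant after 21,000xg for 90 min was soluble protein. This was quantified by TMTpro 16plex LC-MS/MS with channel sums equalised, and thermal stability was reported relative to control samples from duplicates, on a log2 fold-change scale.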

Chains of the proteins cited; added tags and fusions are not shown. Lines headed by an entry give the natural chain unless they say otherwise; changes in a name come on top.
UniProt Q8TD16, whole entry, looked up: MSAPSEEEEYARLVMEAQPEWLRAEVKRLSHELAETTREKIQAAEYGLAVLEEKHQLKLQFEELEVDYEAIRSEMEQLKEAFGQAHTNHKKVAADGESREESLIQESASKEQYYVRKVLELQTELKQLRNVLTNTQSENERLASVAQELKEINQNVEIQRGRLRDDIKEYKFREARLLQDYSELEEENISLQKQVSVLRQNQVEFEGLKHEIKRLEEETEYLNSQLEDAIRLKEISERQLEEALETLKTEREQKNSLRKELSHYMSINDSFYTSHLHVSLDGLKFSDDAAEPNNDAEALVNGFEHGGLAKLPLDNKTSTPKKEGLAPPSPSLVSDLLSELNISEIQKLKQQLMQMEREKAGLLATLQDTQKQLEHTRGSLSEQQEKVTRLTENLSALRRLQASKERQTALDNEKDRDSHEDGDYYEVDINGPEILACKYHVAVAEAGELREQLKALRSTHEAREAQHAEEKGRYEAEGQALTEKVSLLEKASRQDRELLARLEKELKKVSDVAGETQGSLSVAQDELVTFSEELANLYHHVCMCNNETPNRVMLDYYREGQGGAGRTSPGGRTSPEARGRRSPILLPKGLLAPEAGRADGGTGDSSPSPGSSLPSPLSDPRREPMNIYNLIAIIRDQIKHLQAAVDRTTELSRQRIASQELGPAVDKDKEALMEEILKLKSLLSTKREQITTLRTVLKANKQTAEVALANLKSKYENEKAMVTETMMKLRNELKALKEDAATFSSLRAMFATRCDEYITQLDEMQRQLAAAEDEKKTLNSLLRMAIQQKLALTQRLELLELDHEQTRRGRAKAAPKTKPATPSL
UniProt Q9NYF8, whole entry, looked up: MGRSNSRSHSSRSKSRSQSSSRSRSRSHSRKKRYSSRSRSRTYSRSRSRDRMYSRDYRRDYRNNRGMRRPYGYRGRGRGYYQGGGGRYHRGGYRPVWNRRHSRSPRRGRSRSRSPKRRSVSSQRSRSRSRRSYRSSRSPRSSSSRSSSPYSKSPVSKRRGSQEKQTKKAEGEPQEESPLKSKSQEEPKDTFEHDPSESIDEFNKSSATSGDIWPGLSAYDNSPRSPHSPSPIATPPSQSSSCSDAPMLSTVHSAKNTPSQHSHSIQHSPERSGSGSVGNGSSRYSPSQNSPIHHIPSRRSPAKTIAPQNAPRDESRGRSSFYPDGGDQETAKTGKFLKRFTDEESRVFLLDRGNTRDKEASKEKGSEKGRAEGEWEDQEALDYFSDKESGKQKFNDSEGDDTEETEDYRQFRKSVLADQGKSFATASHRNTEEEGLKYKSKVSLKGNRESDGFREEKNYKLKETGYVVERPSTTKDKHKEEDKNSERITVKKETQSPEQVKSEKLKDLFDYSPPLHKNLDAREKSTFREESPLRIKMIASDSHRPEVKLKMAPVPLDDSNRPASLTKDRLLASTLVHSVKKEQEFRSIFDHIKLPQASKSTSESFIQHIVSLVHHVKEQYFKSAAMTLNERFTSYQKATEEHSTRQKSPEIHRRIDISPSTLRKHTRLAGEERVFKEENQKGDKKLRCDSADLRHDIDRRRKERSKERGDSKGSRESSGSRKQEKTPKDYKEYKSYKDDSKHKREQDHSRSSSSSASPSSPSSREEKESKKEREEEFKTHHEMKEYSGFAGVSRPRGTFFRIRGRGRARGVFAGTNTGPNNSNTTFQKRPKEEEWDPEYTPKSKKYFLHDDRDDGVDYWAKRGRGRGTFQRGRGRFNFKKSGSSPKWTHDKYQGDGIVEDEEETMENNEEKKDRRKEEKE
UniProt Q7Z5W3: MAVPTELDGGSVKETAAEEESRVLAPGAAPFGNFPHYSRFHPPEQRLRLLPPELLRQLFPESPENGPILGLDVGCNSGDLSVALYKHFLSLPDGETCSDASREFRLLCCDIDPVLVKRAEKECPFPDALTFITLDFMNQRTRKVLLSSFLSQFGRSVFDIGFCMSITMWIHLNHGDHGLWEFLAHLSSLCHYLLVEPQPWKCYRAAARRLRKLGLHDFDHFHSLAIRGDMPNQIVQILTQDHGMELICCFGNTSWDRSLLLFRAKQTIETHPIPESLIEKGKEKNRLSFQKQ
UniProt Q9H6S1, whole entry, looked up: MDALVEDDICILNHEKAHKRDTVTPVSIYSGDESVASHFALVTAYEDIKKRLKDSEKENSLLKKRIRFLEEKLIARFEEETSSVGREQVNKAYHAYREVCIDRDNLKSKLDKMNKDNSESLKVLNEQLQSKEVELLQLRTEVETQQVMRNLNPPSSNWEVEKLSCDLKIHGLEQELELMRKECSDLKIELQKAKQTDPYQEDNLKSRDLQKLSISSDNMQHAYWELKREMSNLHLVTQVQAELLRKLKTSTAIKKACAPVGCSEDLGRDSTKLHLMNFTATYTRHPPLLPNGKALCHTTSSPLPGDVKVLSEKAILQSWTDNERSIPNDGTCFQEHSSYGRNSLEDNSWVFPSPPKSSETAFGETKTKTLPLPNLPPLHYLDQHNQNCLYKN
UniProt Q8NCR0: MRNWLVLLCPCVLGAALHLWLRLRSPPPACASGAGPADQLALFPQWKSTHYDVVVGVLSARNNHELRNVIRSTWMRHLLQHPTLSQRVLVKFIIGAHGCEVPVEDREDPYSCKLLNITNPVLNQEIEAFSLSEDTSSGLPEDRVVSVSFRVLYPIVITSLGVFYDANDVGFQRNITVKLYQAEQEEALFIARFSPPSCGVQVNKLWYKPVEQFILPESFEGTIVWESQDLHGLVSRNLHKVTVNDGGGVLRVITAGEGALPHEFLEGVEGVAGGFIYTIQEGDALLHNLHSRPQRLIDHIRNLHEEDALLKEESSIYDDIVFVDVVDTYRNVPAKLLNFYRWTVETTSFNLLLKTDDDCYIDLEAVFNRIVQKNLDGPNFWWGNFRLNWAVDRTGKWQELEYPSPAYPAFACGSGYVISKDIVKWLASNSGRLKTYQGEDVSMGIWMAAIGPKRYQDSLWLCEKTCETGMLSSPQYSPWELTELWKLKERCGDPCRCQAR
UniProt Q9NWD9: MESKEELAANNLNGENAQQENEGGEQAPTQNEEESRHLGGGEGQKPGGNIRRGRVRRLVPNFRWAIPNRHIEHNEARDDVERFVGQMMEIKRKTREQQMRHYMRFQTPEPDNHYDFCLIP
UniProt Q9UL15: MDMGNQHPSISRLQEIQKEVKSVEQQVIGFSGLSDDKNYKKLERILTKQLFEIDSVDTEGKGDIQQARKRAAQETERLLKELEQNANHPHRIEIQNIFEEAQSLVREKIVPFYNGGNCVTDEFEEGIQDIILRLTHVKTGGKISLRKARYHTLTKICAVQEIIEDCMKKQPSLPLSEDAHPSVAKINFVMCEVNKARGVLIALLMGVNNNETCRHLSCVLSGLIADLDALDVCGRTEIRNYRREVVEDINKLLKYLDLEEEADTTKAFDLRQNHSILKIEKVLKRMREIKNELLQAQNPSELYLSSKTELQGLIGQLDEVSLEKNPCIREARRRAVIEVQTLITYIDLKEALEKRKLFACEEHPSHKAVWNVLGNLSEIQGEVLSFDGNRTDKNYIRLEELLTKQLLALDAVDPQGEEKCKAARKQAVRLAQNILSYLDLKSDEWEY
UniProt Q6PGQ7, whole entry, looked up: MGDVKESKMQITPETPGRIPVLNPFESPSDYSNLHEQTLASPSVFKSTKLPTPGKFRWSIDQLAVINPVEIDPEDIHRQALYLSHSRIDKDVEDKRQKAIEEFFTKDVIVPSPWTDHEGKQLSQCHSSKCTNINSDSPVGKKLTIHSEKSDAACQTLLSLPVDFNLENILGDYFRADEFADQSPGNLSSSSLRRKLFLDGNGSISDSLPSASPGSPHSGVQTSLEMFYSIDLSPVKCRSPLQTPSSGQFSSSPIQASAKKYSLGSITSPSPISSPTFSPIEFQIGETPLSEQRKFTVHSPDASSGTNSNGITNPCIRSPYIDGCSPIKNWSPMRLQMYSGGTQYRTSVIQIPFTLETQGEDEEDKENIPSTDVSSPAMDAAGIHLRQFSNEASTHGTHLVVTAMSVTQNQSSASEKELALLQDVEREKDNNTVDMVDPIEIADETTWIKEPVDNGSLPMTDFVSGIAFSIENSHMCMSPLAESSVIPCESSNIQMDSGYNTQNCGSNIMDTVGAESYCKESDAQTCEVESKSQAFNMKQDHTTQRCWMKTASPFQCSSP
UniProt Q96G97: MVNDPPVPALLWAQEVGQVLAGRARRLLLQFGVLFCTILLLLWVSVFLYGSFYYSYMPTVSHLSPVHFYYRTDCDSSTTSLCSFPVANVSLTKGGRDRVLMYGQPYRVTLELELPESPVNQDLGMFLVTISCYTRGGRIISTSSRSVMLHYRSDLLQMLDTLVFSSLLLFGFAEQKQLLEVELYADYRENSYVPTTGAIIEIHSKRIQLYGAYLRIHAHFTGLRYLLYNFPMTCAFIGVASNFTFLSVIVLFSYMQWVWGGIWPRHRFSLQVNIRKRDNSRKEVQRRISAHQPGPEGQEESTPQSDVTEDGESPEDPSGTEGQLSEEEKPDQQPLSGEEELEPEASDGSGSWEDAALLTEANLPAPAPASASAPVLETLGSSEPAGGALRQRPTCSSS
UniProt O15392, whole entry, looked up: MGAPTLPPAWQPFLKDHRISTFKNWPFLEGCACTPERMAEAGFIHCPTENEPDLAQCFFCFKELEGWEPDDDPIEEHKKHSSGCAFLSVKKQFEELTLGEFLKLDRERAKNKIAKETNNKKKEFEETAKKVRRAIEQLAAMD
UniProt Q96B45: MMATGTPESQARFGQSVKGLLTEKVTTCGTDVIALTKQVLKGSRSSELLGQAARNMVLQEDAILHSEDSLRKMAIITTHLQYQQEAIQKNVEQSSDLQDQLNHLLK
UniProt Q13825: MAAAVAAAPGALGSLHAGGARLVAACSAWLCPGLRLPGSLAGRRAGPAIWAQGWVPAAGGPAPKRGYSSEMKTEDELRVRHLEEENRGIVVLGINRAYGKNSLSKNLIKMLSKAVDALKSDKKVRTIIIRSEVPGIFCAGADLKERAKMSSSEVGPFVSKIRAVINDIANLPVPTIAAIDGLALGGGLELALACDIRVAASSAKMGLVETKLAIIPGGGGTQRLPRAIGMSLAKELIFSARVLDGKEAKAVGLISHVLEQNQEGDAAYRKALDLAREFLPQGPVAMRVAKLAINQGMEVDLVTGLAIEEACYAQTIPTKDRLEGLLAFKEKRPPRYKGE
UniProt P11274: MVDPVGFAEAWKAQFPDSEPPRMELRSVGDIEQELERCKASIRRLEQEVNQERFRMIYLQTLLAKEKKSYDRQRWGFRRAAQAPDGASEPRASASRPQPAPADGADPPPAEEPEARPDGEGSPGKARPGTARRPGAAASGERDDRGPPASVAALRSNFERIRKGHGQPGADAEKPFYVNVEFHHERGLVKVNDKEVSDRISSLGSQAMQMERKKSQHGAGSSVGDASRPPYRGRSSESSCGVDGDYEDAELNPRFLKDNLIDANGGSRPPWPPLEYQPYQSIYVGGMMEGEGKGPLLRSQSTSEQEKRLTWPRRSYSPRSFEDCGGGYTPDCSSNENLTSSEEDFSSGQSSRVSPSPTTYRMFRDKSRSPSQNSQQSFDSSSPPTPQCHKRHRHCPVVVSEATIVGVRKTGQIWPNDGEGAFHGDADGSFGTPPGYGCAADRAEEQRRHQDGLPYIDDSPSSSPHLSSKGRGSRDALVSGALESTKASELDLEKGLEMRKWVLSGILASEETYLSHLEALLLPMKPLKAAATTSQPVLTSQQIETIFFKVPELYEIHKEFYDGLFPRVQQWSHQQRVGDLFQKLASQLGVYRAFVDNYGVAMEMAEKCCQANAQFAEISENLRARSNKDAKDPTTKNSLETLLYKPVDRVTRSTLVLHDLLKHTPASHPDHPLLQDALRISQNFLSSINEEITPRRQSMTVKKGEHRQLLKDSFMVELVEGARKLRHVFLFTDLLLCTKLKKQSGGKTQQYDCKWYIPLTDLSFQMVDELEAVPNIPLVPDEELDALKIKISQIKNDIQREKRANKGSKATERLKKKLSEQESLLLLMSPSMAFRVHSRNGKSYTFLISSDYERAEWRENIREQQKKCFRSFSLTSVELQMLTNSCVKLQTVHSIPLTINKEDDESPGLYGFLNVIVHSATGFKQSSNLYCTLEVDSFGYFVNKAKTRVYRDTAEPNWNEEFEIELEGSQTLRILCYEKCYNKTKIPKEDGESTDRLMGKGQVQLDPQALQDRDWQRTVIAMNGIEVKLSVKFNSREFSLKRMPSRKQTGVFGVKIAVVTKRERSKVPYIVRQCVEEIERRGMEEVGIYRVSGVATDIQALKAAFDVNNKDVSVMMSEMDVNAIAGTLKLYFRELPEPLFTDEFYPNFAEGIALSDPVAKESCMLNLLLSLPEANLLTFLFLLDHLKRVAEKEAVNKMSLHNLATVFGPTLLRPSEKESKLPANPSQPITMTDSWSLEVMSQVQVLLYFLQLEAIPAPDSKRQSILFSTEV

[2] = compound: Cc1cccc(CC(=O)N2CCc3c2ccc(-c2cn(C)c4ncnc(N)c24)c3F)n1
Method in brief: as §1

[3] = compound: Cc1cn(-c2cc(NC(=O)c3ccc(C)c(Nc4nccc(-c5cccnc5)n4)c3)cc(C(F)(F)F)c2)cn1 [nilotinib]
Method in brief: as §1

[4] = compound: Cc1nc(Nc2n[nH]c3c2CN(C(=O)N[C@H](CN(C)C)c2ccccc2)C3(C)C)c2sccc2n1
Method in brief: as §1

[5] = compound: Cc1nc(Nc2ncc(C(=O)Nc3c(C)cccc3Cl)s2)cc(N2CCN(CCO)CC2)n1 [dasatinib]
Method in brief: as §1

[6] = compound: Cc1ncc(-c2ccnc(Nc3ccc(S(C)(=O)=O)cc3)n2)n1C(C)C
Method in brief: as §1

[7] = compound: Cn1cc(-c2ccc3c(c2)CCN3C(=O)Cc2cccc(C(F)(F)F)c2)c2c(N)ncnc21
Method in brief: as §1

[8] = compound: Cn1cc(-c2ccc3nnc(C(F)(F)c4ccc5ncccc5c4)n3n2)cn1
Method in brief: as §1

[9] = compound: Cn1cncc1[C@@](N)(c1ccc(Cl)cc1)c1ccc2c(c1)c(-c1cccc(Cl)c1)cc(=O)n2C [tipifarnib]
Method in brief: as §1

[10] = compound: FC(F)(F)c1ccc(/C=C/c2nc(COc3ccc(CCCCn4ccnn4)cc3)co2)cc1 [mubritinib]
Method in brief: as §1

[11] = compound: NC(=O)Nc1cc(-c2cccc(F)c2)sc1C(=O)N[C@H]1CCCNC1
Method in brief: as §1

[12] = compound: NC(=O)c1cnc(N[C@@H]2CCCC[C@@H]2N)nc1Nc1cccc(-n2nccn2)c1
Method in brief: as §1

[13] = compound: NC1(c2ccc(-c3nc4ccn5c(=O)[nH]nc5c4cc3-c3ccccc3)cc2)CCC1
Method in brief: as §1

[14] = compound: NCC(=O)Nc1ccc(-n2nc(C(F)(F)F)cc2-c2ccc3c(ccc4ccccc43)c2)cc1
Method in brief: as §1

[15] = compound: Nc1ccccc1NC(=O)c1ccc(CNC(=O)OCc2cccnc2)cc1 [entinostat]
Method in brief: as §1

[16] = compound: O=C(CCCCCCC(=O)Nc1ccccc1)NO [vorinostat]
Method in brief: as §1

[17] = compound: O=C(CCCCCCNC(=O)c1cnc(N(c2ccccc2)c2ccccc2Cl)nc1)NO [citarinostat]
Method in brief: as §1

[18] = compound: O=C(O)c1ccc2c(c1)nc(Nc1cccc(Cl)c1)c1ccncc12 [silmitasertib]
Method in brief: as §1

[19] = compound: O=C1NC(=O)C(c2cnc3ccccn23)=C1c1cn2c3c(cc(F)cc13)CN(C(=O)N1CCCCC1)CC2
Method in brief: as §1

[20] = compound: c1cc(OCCN2CCCCC2)cc(-c2n[nH]c3ccc(-c4nnc[nH]4)cc23)c1
Method in brief: as §1

Target | log2 fold change [1] | log2 fold change [2] | log2 fold change [3] | log2 fold change [4] | log2 fold change [5] | log2 fold change [6] | log2 fold change [7] | log2 fold change [8] | log2 fold change [9] | log2 fold change [10] | log2 fold change [11] | log2 fold change [12] | log2 fold change [13] | log2 fold change [14] | log2 fold change [15] | log2 fold change [16] | log2 fold change [17] | log2 fold change [18] | log2 fold change [19] | log2 fold change [20]
BICD2 isoform 2 (UniProt Q8TD16) | inactive: -0.037 | inactive: -0.005 | inactive: -0.021 | inactive: -0.07 | inactive: -0.187 | inactive: 0.041 | inactive: 0.004 | inactive: 0.011 | inactive: -0.015 | inactive: 0.009 | inactive: -0.078 | inactive: -0.056 | inactive: -0.121 | inactive: -0.095 | inactive: 0.054 | inactive: 0.043 | inactive: 0.006 | inactive: 0.033 | inactive: 0.012 | inactive: -0.03
BCLAF1 (UniProt Q9NYF8) | inactive: -0.028 | inactive: 0.059 | inactive: 0.02 | active: -0.609 | inactive: 0.081 | inactive: -0.14 | inactive: -0.018 | inactive: -0.065 | inactive: -0.005 | inactive: 0.031 | inactive: 0.01 | inactive: 0.006 | inactive: 0.003 | inactive: 0.064 | inactive: 0.047 | inactive: 0.109 | inactive: 0.07 | inactive: -0.361 | inactive: 0.128 | inactive: -0.31
B4GALT7 (UniProt Q9UBV7) | inactive: -0.069 | inactive: -0.161 |  |  | inactive: -0.044 |  | inactive: -0.18 | inactive: -0.012 | inactive: -0.085 | inactive: 0.073 | inactive: 0.042 | inactive: 0.117 | inactive: -0.029 | inactive: -0.013 | inactive: -0.03 | inactive: -0.036 | inactive: 0.022 | inactive: -0.044 | inactive: 0.056 | inactive: -0.052
BCDIN3D (UniProt Q7Z5W3) | inactive: 0.036 |  |  |  |  |  | inactive: 0.133 |  |  |  |  | inactive: -0.048 |  |  |  |  | inactive: 0.228 |  |  | inactive: 0.068
AZI2 (UniProt Q9H6S1) | inactive: -0.049 |  | inactive: 0.179 | inactive: 0.481 |  | inactive: 0.099 |  | inactive: 0.105 |  |  | inactive: -0.094 |  |  | inactive: -0.152 | inactive: 0.041 |  | inactive: -0.014 |  |  | inactive: -0.028
B3GALNT2 (UniProt Q8NCR0) | inactive: -0.133 | inactive: 0.011 |  |  |  |  |  | inactive: -0.004 | inactive: 0.306 | inactive: 0.055 | inactive: -0.022 |  | inactive: -0.018 | inactive: -0.258 | inactive: 0.071 | inactive: -0.163 | inactive: -0.025 | inactive: 0.135 | inactive: 0.007 | inactive: -0.356
B3GNT5 (UniProt Q9BYG0) | inactive: -0.053 |  | inactive: 0.04 | inactive: 0.064 | inactive: 0.012 | inactive: 0.077 | inactive: -0.201 |  |  | inactive: 0.054 | inactive: 0.01 |  | inactive: 0.002 | inactive: 0.118 | inactive: 0.006 |  |  | inactive: -0.115 | inactive: -0.024 | 
BNIP3 (UniProt Q12983) | inactive: -0.051 | inactive: 0.015 | inactive: -0.039 | inactive: 0.002 |  | inactive: 0.058 |  | inactive: -0.058 | inactive: 0.008 | inactive: 0.094 | inactive: -0.042 | inactive: -0.112 | inactive: -0.255 | inactive: -0.023 | inactive: 0.061 | inactive: 0.03 | inactive: 0.052 | inactive: 0.171 | inactive: -0.179 | inactive: -0.087
BEX4 (UniProt Q9NWD9) | inactive: -0.006 |  |  |  | inactive: -0.005 |  | inactive: -0.173 |  |  | inactive: -0.093 | inactive: -0.074 |  | inactive: -0.147 |  | inactive: 0.263 |  | inactive: 0.115 | inactive: 0.213 |  | inactive: -0.301
BCL7C isoform 2 (UniProt Q8WUZ0) | inactive: -0.05 |  | inactive: 0.049 | inactive: 0.036 |  | inactive: -0.074 | inactive: -0.056 |  |  | inactive: -0.007 | inactive: 0.043 |  | inactive: -0.066 |  | inactive: -0.12 |  |  | inactive: 0.022 | inactive: 0.128 | 
BAG5 isoform 2 (UniProt Q9UL15) | inactive: -0.052 | inactive: 0.014 | inactive: 0.037 | inactive: -0.025 |  | inactive: 0.069 | inactive: 0.064 | inactive: 0.082 | inactive: -0.224 | inactive: 0.048 | inactive: 0.059 | inactive: -0.036 | inactive: -0.214 | inactive: 0.03 | inactive: 0.063 | inactive: 0.09 | inactive: 0.145 | inactive: 0.011 | inactive: 0.004 | inactive: -0.097
BORA (UniProt Q6PGQ7) | inactive: 0.011 |  |  |  |  |  |  |  |  |  | inactive: 0.488 |  |  |  | inactive: -0.085 |  |  |  | inactive: -0.01 | 
BLVRA (UniProt C9J1E1) | inactive: 0.089 | inactive: -0.075 | inactive: -0.343 | inactive: 0.328 | inactive: 0.167 | inactive: -0.201 | inactive: -0.011 |  | inactive: -0.026 | inactive: -0.064 |  | inactive: -0.28 | inactive: -0.198 | inactive: -0.077 |  | inactive: 0.018 |  | inactive: 0.138 |  | 
BSCL2 isoform 4 (UniProt Q96G97) | inactive: -0.225 | inactive: -0.041 | inactive: 0.101 | inactive: 0.026 | inactive: -0.14 | inactive: 0.116 | inactive: 0.002 |  | inactive: 0.109 | inactive: 0.133 |  | inactive: -0.197 | inactive: -0.013 | inactive: 0.007 |  | inactive: 0.074 |  | inactive: 0.172 | inactive: 0.033 | 
BIRC5 (UniProt O15392) | inactive: -0.076 |  | inactive: 0.077 | inactive: 0.023 | inactive: -0.004 | inactive: 0.098 | inactive: -0.031 | inactive: -0.038 | inactive: -0.033 |  | inactive: -0.003 | inactive: 0.018 |  | inactive: 0.145 | inactive: -0.032 |  | inactive: 0.09 |  | inactive: -0.148 | inactive: 0.044
ATXN3 isoform 1 (UniProt P54252) | inactive: 0.03 | inactive: 0.021 | inactive: -0.038 | inactive: -0.11 |  | inactive: -0.021 | inactive: 0.001 | inactive: 0.033 | inactive: 0.026 | inactive: 0.018 |  | inactive: -0.256 | inactive: -0.137 | inactive: -0.019 |  | inactive: -0.003 | inactive: -0.01 | inactive: 0.093 |  | inactive: -0.015
BCAR1 isoform 6 (UniProt P56945) | inactive: 0.129 | inactive: -0.007 |  |  | inactive: -0.06 |  | inactive: -0.117 | inactive: 0.031 | inactive: 0.004 |  | inactive: -0.143 | inactive: 0.203 |  | inactive: -0.084 | inactive: 0.022 | inactive: 0.092 | inactive: 0.06 |  | inactive: 0.071 | inactive: -0.043
BORCS7 (UniProt Q96B45) | inactive: 0.001 | inactive: 0.09 | inactive: 0.062 | inactive: -0.009 | inactive: 0.13 | inactive: -0.019 | inactive: 0.042 |  | inactive: -0.071 | inactive: 0.05 |  | inactive: -0.077 | inactive: -0.098 | inactive: 0.07 |  | inactive: -0.037 | inactive: 0.066 | inactive: 0.04 |  | inactive: -0.083
AUH (UniProt Q13825) | inactive: -0.102 | inactive: 0.024 |  |  | inactive: 0.145 |  | inactive: -0.072 | inactive: 0.007 | inactive: -0.011 | inactive: 0.048 |  | inactive: 0.011 | inactive: -0.023 | inactive: 0.103 |  | inactive: 0.018 | inactive: -0.103 | inactive: -0.061 |  | inactive: 0.003
BCR (UniProt P11274) | inactive: 0.201 | inactive: 0.014 |  |  | inactive: 0.195 |  | inactive: -0.149 | inactive: -0.059 | inactive: -0.091 | inactive: -0.072 |  |  | inactive: 0.364 |  | inactive: -0.099 | inactive: 0.267 | inactive: -0.007 | inactive: 0.399 | inactive: 0.041 | inactive: -0.278

Some values from above:
Entry for BORCS7 (UniProt Q96B45) under log2 fold change [14]: inactive: 0.07
Entry for BCL7C isoform 2 (UniProt Q8WUZ0) under log2 fold change [4]: inactive: 0.036

Source: the supplement of paper PMC10849652
